Percent effect of library compounds

Protein sequences, listed by entry. Tags and fused reporters are not part of them. Residues count along the entry.
UniProt Q4DA54, 1-478: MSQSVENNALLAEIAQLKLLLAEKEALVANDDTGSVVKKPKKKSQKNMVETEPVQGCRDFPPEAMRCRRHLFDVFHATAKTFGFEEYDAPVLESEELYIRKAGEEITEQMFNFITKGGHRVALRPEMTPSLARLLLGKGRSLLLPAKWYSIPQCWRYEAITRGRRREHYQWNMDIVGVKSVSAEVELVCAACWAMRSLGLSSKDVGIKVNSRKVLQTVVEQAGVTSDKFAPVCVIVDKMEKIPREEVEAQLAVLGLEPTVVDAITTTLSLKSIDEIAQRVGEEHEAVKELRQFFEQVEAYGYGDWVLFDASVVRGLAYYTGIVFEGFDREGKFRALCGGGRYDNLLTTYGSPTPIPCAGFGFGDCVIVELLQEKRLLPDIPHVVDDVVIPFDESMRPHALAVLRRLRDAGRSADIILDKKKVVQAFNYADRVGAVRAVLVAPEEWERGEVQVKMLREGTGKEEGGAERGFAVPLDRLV

Data taken from ChEMBL document CHEMBL3988442, “University of Dundee, Small-Polar-MMV Screening Library” (2021).

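Enzyme assay of histidyl-tRNA synthetase; the read-out is not stated. Target: Histidine-tRNA ligase, Trypanosoma cruzi CL Brener (UniProt Q4DA54). Tested at 30 µM. Direction is inferred from retests: higher values go with stronger inhibition. Size under these conditions: about 69,000 compounds, about 31 of them at 50% or above in at least one test.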

Results are given as percent effect. The record does not define 0% and 100%; most values in the screen are far below 50% and negative numbers occur (in some assays of this library far below -100). This is an unselected part of the compounds tested.

Result for COc1cc(C)nc(N2CCN(C(=O)c3ccc[nH]3)CC2)n1 was 0.7519%. CCOC(=O)CCNC(=O)c1cccc2ccc(C)nc12 read 8.861%. CCC1CN(C(=O)c2cnc(-c3cnn(C)c3)s2)CCO1 (stereo not given) gave 2.222%. With CN1CC(C(=O)N2CCC(Oc3ccccc3Cl)CC2)CC1=O (stereo not given) the screen gave -0.5952%. For Cc1cc(-c2cnc(NCc3ccc4c(c3)OCO4)nc2C(C)C)on1 the result was 3.191%. COC(=O)C(NC(=O)c1ccco1)c1cc(F)ccc1F (stereo not given) read 1.527%. For CN(Cc1cccnc1)[C@@H]1CN(C(=O)CC2CC2)[C@@H]2CCCO[C@H]12 the result was 8.571%.

CNc1cncc(C2CCCN(S(C)(=O)=O)C2)n1 (stereo not given) gave 4.865%. CN(Cc1ccccn1)C(=O)[C@]12COC[C@H]1CN(Cc1cnn(C)c1)C2 gave 0.5405%. For CCOc1ccc(CN(CC)C(=O)c2ccc(C)[nH]c2=O)cc1OC the result was 4.734%. For O=C(CCn1cccn1)N1CC[C@@H](c2ccc3ccccc3c2)[C@H](O)C1 the result was 2.186%. For c1cc(COC[C@@H]2CCC[C@@]23CNCCO3)ccn1 the result was 3.867%. CCCOC1CCCN(c2nc(COC)nc3c2cnn3C)C1 (stereo not given) read 8.911%. Result for Cc1ncc(C(=O)NC2CCN(CCOc3ccc(Br)cc3)CC2)s1 was 10.61%.

Result for O=C(Nc1cccn(Cc2ccc(F)cc2)c1=O)c1cnc[nH]1 was 10.18%. For CN(CC(=O)Nc1cc(-n2nnnc2C2CC2)ccc1F)C1CCC1 the result was 4.433%. Result for N#CCCNC(=O)CN1CCC(c2cc3ccccc3[nH]2)CC1 was 3.922%. For FC(F)C(F)(F)COCc1ncnn1-c1ccc2c(c1)OCO2 the result was 5.952%. CCC(C)(C)n1nnnc1C(c1cccs1)N1CCc2ccccc21 (stereo not given) read 0.2857%. For COc1cc(C(=O)N(Cc2ccco2)C2CC2)cc2c1OCCO2 the result was 4.348%. COc1ccccc1CCNC(=O)CNC1CCc2nc(C)nn2C1 (stereo not given) read 9.836%.

CCN(C(=O)CN(CC(N)=O)C(C)C)C1=CCCC1 read 0%. O=S(=O)(c1cccnc1)N1C[C@@H]2COC[C@]2(CN2CCOCC2)C1 read 0%. With CC(=O)N1CCCC(Cc2cnc(C(=O)N3CCC(C)CC3)cn2)C1 (stereo not given) the screen gave 2.996%. Cn1ccc(-c2cc(C(=O)N3CCC(C(N)=O)CC3)c3ccccn23)n1 gave -82.54%. With CC(=O)NCCNC(=O)CN1CCCCC1Cn1cncn1 (stereo not given) the screen gave 4%. Result for CCc1nc(C2CCCN2C(=O)c2cc(C3CC3)[nH]n2)no1 (stereo not given) was 3.396%. Cc1ccc2c(c1)C1(CCNCC1)CN2C(=O)C(C)C gave 4.926%.

CN(CCc1cccs1)C1CCCN(Cc2noc(C3CC3)n2)C1 (stereo not given) gave 1.626%. O=C(c1cc(C2CCCC2)no1)N1CC(O)C1 gave 2.591%. With COCCCC1CCCN(C(=O)CCc2csc(N)n2)C1 (stereo not given) the screen gave 2.041%. O=C(C(c1ccccc1)S(=O)(=O)c1ccccc1)N1CCCCC1 (stereo not given) gave 3.627%. With Cc1cncc(C2CCN(Cc3ccc(S(C)(=O)=O)cc3)CC2)n1 the screen gave -5.65%. For Cc1nn2cccnc2c1C(=O)N1CCCC(n2ccnc2)C1 (stereo not given) the result was 6.415%. With CC(CO)CNC(=O)c1cc2cccc(F)c2o1 (stereo not given) the screen gave 8.621%.